PubChem BioAssay AID1259265 – Sanger Institute, 2017

Purpose: 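Confirm primary screen knock-down and drug pairs in SW620 colorectal cancer cells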 (follow-up of hits)
Cells: SW620 human colorectal cancer cells
Knock-down reagent: single siRNA against human genes
Challenge: anchor drug given a day after transfection: BYL719 at 1 µM, cetuximab at 5 µg/ml, trametinib at 10 nM; DMSO alone as the comparison arm
Detection: 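Viability normalised to control pool 2 (non-targeting) and averaged over replicates; synergy score compares combined siRNA and drug effect against each effect alone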
Direction: synergy score with trametinib: higher = stronger synergy (synthetic lethal) with trametinib; synergy score with BYL719: higher = stronger synergy (synthetic lethal) with BYL719; synergy score with cetuximab: higher = stronger synergy (synthetic lethal) with cetuximab
Call rule: 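Active if the synergy score is over 0.10 for any of the three anchor drugs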
Here is one part, drawn at random, of 160 deposited reagents. 31 of them (19%) were called active. 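Calls refer to single siRNAs; agreement across several siRNAs per gene and other cell lines is not shown.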 The numbers tell different reagents against one gene apart. Not all columns of the deposit are shown. The record does not give: the amount of reagent, the time to read-out.

MARK3 #1
- synergy score with trametinib: -0.0626
- synergy score with BYL719: -0.167
- synergy score with cetuximab: -0.0494
- Call: inactive

MARK3 #2
- synergy score with trametinib: -0.0204
- synergy score with BYL719: -0.177
- synergy score with cetuximab: -0.122
- Call: inactive

MARK3 #3
- synergy score with trametinib: -0.0287
- synergy score with BYL719: -0.372
- synergy score with cetuximab: -0.0801
- Call: inactive

MARK3 #4
- synergy score with trametinib: 0.178
- synergy score with BYL719: -0.15
- synergy score with cetuximab: -0.141
- Call: active

CAMK2N1 #1
- synergy score with trametinib: -0.00214
- synergy score with BYL719: -0.0349
- synergy score with cetuximab: -0.184
- Call: inactive

CAMK2N1 #2
- synergy score with trametinib: -0.245
- synergy score with BYL719: 0.197
- synergy score with cetuximab: -0.248

CAMK2N1 #3
- synergy score with trametinib: -0.0464
- synergy score with BYL719: -0.181
- synergy score with cetuximab: -0.215
- Call: inactive

CAMK2N1 #4
- synergy score with trametinib: -0.133
- synergy score with BYL719: -0.163
- synergy score with cetuximab: -0.0592
- Call: inactive

GRK5 #1
- synergy score with trametinib: 0.0209
- synergy score with BYL719: -0.0811
- synergy score with cetuximab: -0.122
- Call: inactive

GRK5 #2
- synergy score with trametinib: 0.0488
- synergy score with BYL719: -0.0623
- synergy score with cetuximab: 0.0649
- Call: inactive

GRK5 #3
- synergy score with trametinib: 0.134
- synergy score with BYL719: -0.115
- synergy score with cetuximab: 0.0227
- Call: active

GRK5 #4
- synergy score with trametinib: -0.00183
- synergy score with BYL719: -0.243
- synergy score with cetuximab: 0.0537
- Call: inactive

PRAG1 #1
- synergy score with trametinib: -0.0356
- synergy score with BYL719: -0.0847
- synergy score with cetuximab: -0.0258
- Call: inactive

PRAG1 #2
- synergy score with trametinib: -0.0807
- synergy score with BYL719: 0.402
- synergy score with cetuximab: -0.122

PRAG1 #3
- synergy score with trametinib: -0.202
- synergy score with BYL719: -0.127
- synergy score with cetuximab: -0.0812
- Call: inactive

PRAG1 #4
- synergy score with trametinib: -0.0603
- synergy score with BYL719: 0.0259
- synergy score with cetuximab: -0.112
- Call: inactive

GTF2H1 #1
- synergy score with trametinib: -0.151
- synergy score with BYL719: -0.109
- synergy score with cetuximab: -0.0675
- Call: inactive

GTF2H1 #2
- synergy score with trametinib: -0.177
- synergy score with BYL719: -0.249
- synergy score with cetuximab: -0.122
- Call: inactive

GTF2H1 #3
- synergy score with trametinib: -0.285
- synergy score with BYL719: -0.306
- synergy score with cetuximab: -0.122
- Call: inactive

GTF2H1 #4
- synergy score with trametinib: -0.0332
- synergy score with BYL719: -0.0148
- synergy score with cetuximab: -0.0815
- Call: inactive
